Laboratory results reported in article PMC10163288.
The other results are listed elsewhere or left out.

B1: il10ra_site1_normal_mot_HHH_b2_00230_000000227_0001_1_19_H_._HHH_b1_00018_0001_0000200033_0000001_0 (protein)
chain: SSSSDEAYEIVREVIEELKELYEKNDPEALEELVEEARKELEEAGNEHAVISLEHFIRLILSSSS
B2: il10ra_site1_normal_mot_3af0db62db2b275566dae2e03bf881fa_0001_000000003_0001_37_50_H_._HHH_b1_08547_af2_0001_0000500007_0000001_0_af2pred_0001 (protein)
chain: SSSSSDLEREARALLYFAELAEEQGDPRAARIHLEFAEEIAEETGDEELLKEIRRLLEELSSSSS
B3: il10ra_site1_normal_mot_HHH_b1_03333_000000091_0001_1_17_H_._HHH_b2_04212_0001_0000200013_0000002_0 (protein)
chain: SSSSTEELYELVKKAIERAIELFRNGDPEQAEEVLEEILEEVEKRGNVNILISLEHLLRVLSSSS
B4: il10ra_site1_sap_17_mot_HHH_b1_06256_000000091_0001_42_58_H_._ems_3hM_3301_0001_0000200007_0000001_0_0001 (protein)
chain: SSSSSTEEEREEVEELLEEAKEITDPEERSKVLLEATRIAIQAQDPELLRLVWRVVKELGSSSSS
B5: il10ra_site1_normal_mot_HHH_b2_08186_000000021_0001_43_56_H_._HHH_b2_02616_0001_0000100008_0000001_0 (protein)
chain: SSSSDKEERLEELLEELERLLEEGDEQEFRRVAIEILRLAFELGDDEALKIVWELLKALASSSSS
B6: il10ra_site1_sap_20_mot_HHH_b2_00093_af2_000000025_0001_40_54_H_._HHH_b2_05679_0001_0000100006_0000001_0_0001_af2pred_0001 (protein)
chain: SSSSSIHERDVELALLAARLLAERGDPEAVREALELARRQAESTNNEELEELVEEVERELSSSSS
B7: il10ra_site1_sap_19_mot_HHH_b2_00479_000000091_0001_1_12_H_._HHH_b2_07972_0001_0000100015_0000002_0_0001 (protein)
chain: SSSSDEEQQEVLELLREAFELALRGNPEEAEKVLRRALELAEEIGDPRAFEMIENLLKALKSSSS
B8: il10ra_site1_normal_mot_HHH_b1_01563_af2_000000118_0001_40_54_H_._ems_3hM_198_af2_0001_0000200006_0000001_0 (protein)
chain: SSDEKEEVEELYEELKEAAEKRDEELISEVALKASRLALELGDQEILHQIWELFKKAIELARSSS
B9: il10ra_site1_normal_mot_HHH_b2_02337_000000026_0001_38_52_H_._HHH_b1_01793_0001_0000300034_0000001_0 (protein)
chain: SSSSSQEEVEELLEELERLLEEGDQERFSRLAQRIAQLAIRVNDPELLQRLWELVQEFARNSSSS
B10: il10ra_site1_sap_17_mot_HHH_b1_06348_000000162_0001_1_15_H_._HHH_b2_06921_0001_0000200013_0000001_0_0001_af2pred_0001 (protein)
chain: SSSSSSEEQDERSVRNLLEAAKRVPDPERARKSLHFAKHLVEAANDEELKELVERAEEELSSSSS
B11: il10ra_site1_sap_15_mot_HHH_b2_00093_af2_000000025_0001_40_54_H_._HHH_b1_03548_0001_0000100008_0000001_0_0001 (protein)
chain: SSSSSDQELIEEAEELAEEAIEKADNRAARFLLRQALEALRLTGDPKAAEILFNLARIVLSSSSS
B12: il10ra_site1_normal_mot_HHH_b2_02337_000000026_0001_38_52_H_._HHH_b2_03376_af2_0001_0000200015_0000001_0 (protein)
chain: SSSSSSEEERLEELLKEVEELLEKGDYREASRVAAELLRLAYRLSDPEVLRALWRLVRSISSSSS
B13: il10ra_site1_normal_mot_HHH_b1_03613_af2_000000245_0001_1_20_H_._HHH_b2_02982_0001_0000100004_0000001_0 (protein)
chain: SSSSDEAYELTRRAIEEAIELFREGNREEAEELLQEVLREVRELGNTAAEFSLEHLLRALSSSSS
B14: il10ra_site1_normal_mot_HHH_b2_03220_af2_000000223_0001_23_40_H_._HHH_b2_06428_af2_0001_0000100006_0000001_0 (protein)
chain: SSSSSDEEELERLKEELEEAVERGDTELVWRLLRELLELAFELNDEEAFEVVLRVARRFSSSSSS
B15: il10ra_site1_sap_18_mot_HHH_b2_02497_000000141_0001_1_20_H_._HHH_b1_00975_0001_0000100001_0000002_0_0001 (protein)
chain: SSSSDKEEELEKLLEELERLVEEGDREEFLELAQEVLRLAIQLNDEEALRLLWRLLHEVASSSSS
B16: il10ra_site1_normal_mot_8756ee2cf497b5429c717dfc0c0bcfd6_0001_000000186_0001_1_13_H_._HHH_b1_03955_af2_0001_0000100005_0000002_0_af2pred_0001 (protein)
chain: SSSSSEELKELIELIRRVAELDSEGNPEEARRLLEEAQKLAEELGDTTAEAQLRFLEEILNSSSS
B17: il10ra_site1_normal_mot_HHH_b1_05670_000000169_0001_1_19_H_._HHH_b2_02857_0001_0000400035_0000001_1 (protein)
chain: SSSSDEDYRRAKELIELIVELLREGNPEEAKKVLEELRELAEENNNPVLEWSVRLLEEDINSSSS
B18: il10ra_site1_normal_mot_HHH_b1_02997_000000220_0001_39_52_H_._HHH_b1_08382_0001_0000500028_0000001_0 (protein)
chain: SSSSSTEEVYELIRRAAELRYRGNPEEAEELLEEALRLAEELGNENFEFNIRYLLRQVRRSSSSS
B19: il10ra_site1_normal_mot_HHH_b1_03763_000000209_0001_22_38_H_._HHH_b2_00471_0001_0000100006_0000001_0 (protein)
chain: SSSSSSSEEEIEELLEEARHIPDAEERFRLLREAIELAVEAGDPELLKLIMEFIQELFSSSSSSS
B20: il10ra_site1_sap_24_mot_HHH_b2_00984_000000042_0001_1_20_H_._a9737a16b0b5168389c1a5856fbd9e1f_0001_0001_0000400005_0000001_0_0001_af2pred_0001 (protein)
chain: SSSSSSYAERLYRLSREAVELAREGNPEEARELLEEAEELARENNDLNLLAVIEYALEILSSSSS
B21: il10ra_site1_sap_18_mot_HHH_b2_05343_000000235_0001_19_35_H_._HHH_b1_08772_0001_0000100005_0000002_0_0001_af2pred_0001 (protein)
chain: SSSSSEEEERAEKLYEELRKLVEEGDRDEVRRVLHELIRLANSGKDQKAAELIREILQRLSSSSS
B22: il10ra_site1_sap_21_mot_HHH_b1_06914_000000280_0001_1_18_H_._HHH_b2_08153_0001_0000400035_0000001_0_0001 (protein)
chain: SSSSSREELREEVEEVIEELEEKNDTKLLHRLMELYKRAAELGDEELVREIFEVLLRIVQKSSSS
B23: il10ra_site1_normal_mot_HHH_b1_01779_000000096_0001_43_57_H_._HHH_b1_00260_0002_0000200013_0000001_0 (protein)
chain: SSSSDEEEEAVRRILESAERAEEVGDPEKARIALEFALALARAAGNPELEEKIRELLEELRSSSS
B24: il10ra_site1_normal_mot_HHH_b2_05813_000000266_0001_1_19_H_._HHH_b1_07280_0001_0000300014_0000002_0_af2pred_0001 (protein)
chain: SSSSDLEEIVFRLRVEARRLLQRGNPEEAERVLEEALEIAEEKGDPRLALAIRELIRRVQESSSS

molecular target: il10ra, Q13651; experiment: yeast display titration

| Binder | apparent Kd |
| --- | --- |
| B1 | inactive: no binding seen |
| B2 | inactive: no binding seen |
| B3 | inactive: no binding seen |
| B4 | inactive: no binding seen |
| B5 | inactive: no binding seen |
| B6 | inactive: no binding seen |
| B7 | inactive: no binding seen |
| B8 | inactive: no binding seen |
| B9 | inactive: no binding seen |
| B10 | inactive: no binding seen |
| B11 | inactive: no binding seen |
| B12 | inactive: > 497 nM |
| B13 | inactive: no binding seen |
| B14 | inactive: no binding seen |
| B15 | inactive: no binding seen |
| B16 | inactive: no binding seen |
| B17 | inactive: no binding seen |
| B18 | inactive: no binding seen |
| B19 | inactive: no binding seen |
| B20 | inactive: no binding seen |
| B21 | inactive: no binding seen |
| B22 | inactive: no binding seen |
| B23 | inactive: no binding seen |
| B24 | inactive: no binding seen |

Some values from the results shown:
B12 | apparent Kd: inactive: > 497 nM
B2 | apparent Kd: inactive: no binding seen
